Here are results for 10 compounds from patent US8901310B2, “Tricyclic compounds, compositions, and methods” (Pfizer Inc., priority 2007, dated 2014).

A short description of the data set: Dissociation index (side-effect endpoint / anti-inflammatory endpoint). The format is in vivo, mouse. The settings on record: for Corrected dissociation index OC/TNFα (ED50) / Corrected dissociation index OC/TNFα (ED80): based on prednisolone; for Dissociation index OC/TNFα (ED50): osteocalcin ED50 / TNFα ED50; for Dissociation index OC/TNFα (ED80): osteocalcin ED80 / TNFα ED80.

Structures are written as SMILES. Some results come without the dose or concentration used. Where only a bound is given, the exact number is not on record here.

With `Cc1ncccc1CNC(=O)c1ccc2c(c1)CC[C@@H]1C[C@@](O)(CCC(F)(F)F)CC[C@@]21Cc1ccccc1` [Comparator A, (4βS,7S,8αR)-4β-benzyl-7-hydroxy-N-((2-methylpyridin-3-yl)methyl)-7-(3,3,3-trifluoropropyl)-4β,5,6,7,8,8α,9,10-octahydrophenanthrene-2-carboxamide], the “Corrected dissociation index OC/TNFα (ED50)” value was 0.56 and the “Dissociation index OC/TNFα (ED50)” value came out at 0.62.

For `Cc1cnc(NC(=O)c2ccc3c(c2)CC[C@@H]2C[C@@](O)(C(F)(F)F)CC[C@@]32Cc2ccccc2)c(C)n1` [Comparator B, (4βS,7R,8αR)-4β-benzyl-N-(3,5-dimethylpyrazin-2-yl)-7-hydroxy-7-(trifluoromethyl)-4β,5,6,7,8,8α,9,10-octahydrophenanthrene-2-carboxamide], the “Corrected dissociation index OC/TNFα (ED50)” value is on record as 1.32, the “Corrected dissociation index OC/TNFα (ED80)” value is listed as above 1.06, the “Dissociation index OC/TNFα (ED50)” value is 1.46 and the “Dissociation index OC/TNFα (ED80)” value is above 3.44.

On to `Cc1ncccc1NC(=O)c1ccc2c(c1)CC[C@@H]1C[C@@](O)(CCC(F)(F)F)CC[C@@]21Cc1ccccc1` [Comparator C, (4βS,7S,8αR)-4β-benzyl-7-hydroxy-N-(2-methylpyridin-3-yl)-7-(3,3,3-trifluoropropyl)-4β,5,6,7,8,8α,9,10-octahydrophenanthrene-2-carboxamide], for which the “Corrected dissociation index OC/TNFα (ED50)” value is 3.37, the “Corrected dissociation index OC/TNFα (ED80)” value is listed as 0.66, the “Dissociation index OC/TNFα (ED50)” value is 3.74 and the “Dissociation index OC/TNFα (ED80)” value came to 2.14.

In the case of `Cc1ccncc1NC(=O)c1ccc2c(c1)CC[C@@H]1C[C@@](O)(C(F)(F)F)CC[C@@]21Cc1ccccc1` [Comparator D, (4βS,7R,8αR)-4β-benzyl-7-hydroxy-N-(4-methylpyridin-3-yl)-7-(trifluoromethyl)-4β,5,6,7,8,8α,9,10-octahydrophenanthrene-2-carboxamide], the “Corrected dissociation index OC/TNFα (ED50)” value turned out to be 0.73, the “Corrected dissociation index OC/TNFα (ED80)” value is reported as below 0.05, the “Dissociation index OC/TNFα (ED50)” value was found to be 0.80 and the “Dissociation index OC/TNFα (ED80)” value is below 0.15.

On to `Cc1ncccc1NC(=O)c1ccc2c(c1)C(=O)C[C@@H]1C[C@@](O)(C(F)(F)F)CC[C@@]21Cc1ccccc1` [Comparator E, (4βS,7R,8αS)-4β-benzyl-7-hydroxy-N-(2-methylpyridin-3-yl)-10-oxo-7-(trifluoromethyl)-4β,5,6,7,8,8α,9,10-octahydrophenanthrene-2-carboxamide], for which the “Corrected dissociation index OC/TNFα (ED50)” value is recorded as 1.09, the “Corrected dissociation index OC/TNFα (ED80)” value turned out to be 0.45, the “Dissociation index OC/TNFα (ED50)” value is on record as 1.21 and the “Dissociation index OC/TNFα (ED80)” value turned out to be 1.45.

As for `Cc1ncccc1NC(=O)c1ccc2c(c1)[C@H](O)C[C@@H]1C[C@@](O)(C(F)(F)F)CC[C@@]21Cc1ccccc1` [Comparator F, (4βS,7R,8αR,10R)-4β-benzyl-7,10-dihydroxy-N-(2-methylpyridin-3-yl)-7-(trifluoromethyl)-4β,5,6,7,8,8α,9,10-octahydrophenanthrene-2-carboxamide], the “Corrected dissociation index OC/TNFα (ED50)” value was 0.50, the “Corrected dissociation index OC/TNFα (ED80)” value is reported as above 0.54, the “Dissociation index OC/TNFα (ED50)” value came out at 0.56 and the “Dissociation index OC/TNFα (ED80)” value is listed as above 1.76.

As for `Cc1ncccc1NC(=O)c1ccc2c(c1)CC[C@@H]1C[C@@](O)(C(F)F)CC[C@@]21Cc1ccccc1` [Comparator H, (4βS,7R,8αR)-4β-benzyl-7-(difluoromethyl)-7-hydroxy-N-(2-methylpyridin-3-yl)-4β,5,6,7,8,8α,9,10-octahydrophenanthrene-2-carboxamide], the “Corrected dissociation index OC/TNFα (ED50)” value worked out at 2.00, the “Corrected dissociation index OC/TNFα (ED80)” value came out at 0.63, the “Dissociation index OC/TNFα (ED50)” value is reported as 2.22 and the “Dissociation index OC/TNFα (ED80)” value amounted to 2.03.

In the case of `Cc1ncccc1NC(=O)c1ccc2c(c1)C=C[C@@H]1C[C@@](O)(C(F)(F)F)CC[C@@]21Cc1ccccc1` [Comparator I, (4βS,7R,8αS)-4β-benzyl-7-hydroxy-N-(2-methylpyridin-3-yl)-7-(trifluoromethyl)-4β,5,6,7,8,8α-hexahydrophenanthrene-2-carboxamide], the “Corrected dissociation index OC/TNFα (ED80)” value is given as above 1.13.

Consider `Cc1ncc(NC(=O)c2ccc3c(c2)CC[C@@H]2C[C@@](O)(CCC(F)(F)F)CC[C@@]32Cc2ccccc2)c(C)n1` [Comparator J, (4βS,7S,8αR)-4β-benzyl-N-(2,4-dimethylpyrimidin-5-yl)-7-hydroxy-7-(3,3,3-trifluoropropyl)-4β,5,6,7,8,8α,9,10-octahydrophenanthrene-2-carboxamide], for which the “Corrected dissociation index OC/TNFα (ED80)” value is 1.40.

Consider `Cc1ncccc1NC(=O)c1ccc2c(c1)CC[C@@H]1C[C@@](O)(C(F)(F)F)CC[C@@]21Cc1ccccc1` [Example 1, (4βS,7R,8αR)-4β-benzyl-7-hydroxy-N-(2-methylpyridin-3-yl)-7-(trifluoromethyl)-4β,5,6,7,8,8α,9,10-octahydrophenanthrene-2-carboxamide], for which, under “listed as Example 1 free base”, the “Corrected dissociation index OC/TNFα (ED50)” value stood at 5.70 and the “Corrected dissociation index OC/TNFα (ED80)” value was above 1.69. The “Corrected dissociation index BFR/disease severity (EAUC80)” value (data set 2) stood at 15.5. Moreover, for the setting “relative to prednisolone”, the “Corrected Dissociation Index BFR/TNFα (EAUC50)” value was found to be 12.0, the “Corrected Dissociation Index BFR/disease incidence (EAUC50)” value came out at 17.0, the “Corrected Dissociation Index BFR/disease incidence (EAUC80)” value turned out to be 15.5 and the “Corrected Dissociation Index BFR/disease severity (EAUC50)” value worked out at 15.0.
